Experimental data as given in paper PMC3124419, “Elucidating the domain architecture and functions of non-core RAG1: The capacity of a non-core zinc-binding domain to function in nuclear import and nucleic acid binding” (BMC Biochemistry, 2011).

Key:
Assay in all cases: EMSA
[1] = biological target: T1, MBP-CND (RAG1 central non-core domain) (murine) (UniProt P15919); conditions: 5 mM Mg2+, EMSA: 10 mM Tris pH 8.0, 5 mM MgCl2, 2 mM DTT, 6% glycerol, 100 mM NaCl, 25 C, 1 nM 32P-DNA, 3.5/8% discontinuous nondenaturing gel, recombinant protein, residues 87-217, protein details: N-terminal MBP
T1 sequence (looked up): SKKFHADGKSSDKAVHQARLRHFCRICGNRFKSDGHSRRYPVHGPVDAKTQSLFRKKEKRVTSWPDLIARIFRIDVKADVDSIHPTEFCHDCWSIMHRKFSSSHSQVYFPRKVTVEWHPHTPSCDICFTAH

MBP-CND+bZDD (murine) = biological target: T2, MBP-CND+bZDD (murine) (UniProt P15919); conditions: 5 mM Mg2+, EMSA: 10 mM Tris pH 8.0, 5 mM MgCl2, 2 mM DTT, 6% glycerol, 100 mM NaCl, 25 C, 1 nM 32P-DNA, 3.5/8% discontinuous nondenaturing gel, recombinant protein, residues 87-380, protein details: N-terminal MBP
T2 sequence (looked up): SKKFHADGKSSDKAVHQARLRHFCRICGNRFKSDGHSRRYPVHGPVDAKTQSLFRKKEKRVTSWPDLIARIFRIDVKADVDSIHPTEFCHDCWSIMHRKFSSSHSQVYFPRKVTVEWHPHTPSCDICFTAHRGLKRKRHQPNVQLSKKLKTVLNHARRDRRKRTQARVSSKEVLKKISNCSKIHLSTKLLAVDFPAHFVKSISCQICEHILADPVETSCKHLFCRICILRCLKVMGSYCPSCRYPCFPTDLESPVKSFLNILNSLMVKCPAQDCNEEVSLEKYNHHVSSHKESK

[2] = biological target: MBP-CND, DTPA-treated (apo) (murine) (UniProt P15919); conditions: DTPA-treated protein; EMSA: 10 mM Tris pH 8.0, 5 mM MgCl2, 2 mM DTT, 6% glycerol, 100 mM NaCl, 25 C, 1 nM 32P-DNA; 3.5/8% discontinuous nondenaturing gel; recombinant protein; residues 87-217; protein details: N-terminal MBP; label: 5' 32P top strand
MBP-RAG1(1-86) (murine) = biological target: T3, MBP-RAG1(1-86) (murine) (UniProt P15919); conditions: 5 mM Mg2+; EMSA: 10 mM Tris pH 8.0, 5 mM MgCl2, 2 mM DTT, 6% glycerol, 100 mM NaCl, 25 C, 1 nM 32P-DNA; 3.5/8% discontinuous nondenaturing gel; recombinant protein; residues 1-86; protein details: N-terminal MBP; label: 5' 32P top strand (unlabeled as competitor)
T3 sequence (looked up): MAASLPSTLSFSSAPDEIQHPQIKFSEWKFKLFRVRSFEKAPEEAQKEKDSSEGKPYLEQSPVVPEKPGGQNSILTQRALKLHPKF

[3] = label: 5' 32P, single-stranded DNA

“GATATGGCTCGTCTTA (double strand) [16 bp ds coding flank]”: binds ([1]; label: 5' 32P top strand); binds (MBP-CND+bZDD (murine); label: 5' 32P top strand); binds more weakly [2].

“GATATGGCTCGTCTTACACAGTGATATAGACCTTAACAAAAACCTCCAATCGAGCGGAG (double strand) [WT 12-RSS]”: no binding (MBP-RAG1(1-86) (murine)).

“GATATGGCTCGTCTTA [16 nt ss coding flank (top strand)]”: binds more weakly [1, 3]; binds more weakly (MBP-CND+bZDD (murine); [3]).

For part of these data: A negative result means that nothing was seen under these conditions. For part of these data: At least one verdict rests on a figure or table, not on a statement of the authors. For part of these data: Tags and fusion partners may be left off the protein sequences shown. For part of these data: The comparison behind a weaker result is the experiment's own reference, which may not be listed here. For part of these data: The exact form of at least one protein or probe is not confirmed.
